This assay deals with HMC-1-8. Kind of assay: Antiproliferation assay 7, HMC-1-8. Format: cell-based. Conditions: read-out: Antiproli HMC-1-8 IC50 median; HMC-1-8 cells, 72 hours, CellTiter-Glo. For orientation: In ATP-based viability assays light output follows the ATP content of the culture.

For part of its entries the source gives two or more results. They are shown here; other results are not. There may be further records. Values given together differ for a reason that is not stated; some may be repeats, others may stem from another dose, organism or construct than stated.

`CCc1c2c(nn1C)CN(CC(F)F)CCCCn1c(C(=O)O)c(CCCOc3cccc4cc(F)ccc34)c3ccc(Cl)c-2c31`: the IC50 is 5.43 µM and 13 µM.

Usually IC50 stands for the concentration that inhibits the measured activity by half.

The values above are taken from patent US11447504B2, “Macrocyclic chlorine substituted indole derivatives” (Bayer Aktiengesellschaft, priority 2017, dated 2022).
